The results in this text go back to PMC7907794.

Results are given in words; binding and its absence hold for the method and conditions named. Binding seen in cells or lysates may run through a third protein. Some entries that bind do so weakly or less than the wild type.

This assay addresses T1, interferon regulatory factor 3 (UniProt Q14653).
T1 sequence: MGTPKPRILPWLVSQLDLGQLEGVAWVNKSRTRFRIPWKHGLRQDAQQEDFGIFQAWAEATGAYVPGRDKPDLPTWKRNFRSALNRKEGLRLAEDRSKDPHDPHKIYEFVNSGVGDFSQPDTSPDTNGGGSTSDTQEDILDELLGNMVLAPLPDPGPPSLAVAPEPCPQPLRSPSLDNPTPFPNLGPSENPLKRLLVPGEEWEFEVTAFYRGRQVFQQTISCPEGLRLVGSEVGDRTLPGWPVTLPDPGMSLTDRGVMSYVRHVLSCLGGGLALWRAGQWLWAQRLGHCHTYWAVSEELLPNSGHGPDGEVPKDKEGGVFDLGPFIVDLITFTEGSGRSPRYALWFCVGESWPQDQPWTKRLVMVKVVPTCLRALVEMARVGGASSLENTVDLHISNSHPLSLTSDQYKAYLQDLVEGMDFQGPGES
Description: co-IP.

B1: TBK1 (protein, UniProt Q9UHD2 1-729)
chain: MQSTSNHLWLLSDILGQGATANVFRGRHKKTGDLFAIKVFNNISFLRPVDVQMREFEVLKKLNHKNIVKLFAIEEETTTRHKVLIMEFCPCGSLYTVLEEPSNAYGLPESEFLIVLRDVVGGMNHLRENGIVHRDIKPGNIMRVIGEDGQSVYKLTDFGAARELEDDEQFVSLYGTEEYLHPDMYERAVLRKDHQKKYGATVDLWSIGVTFYHAATGSLPFRPFEGPRRNKEVMYKIITGKPSGAISGVQKAENGPIDWSGDMPVSCSLSRGLQVLLTPVLANILEADQEKCWGFDQFFAETSDILHRMVIHVFSLQQMTAHKIYIHSYNTATIFHELVYKQTKIISSNQELIYEGRRLVLEPGRLAQHFPKTTEENPIFVVSREPLNTIGLIYEKISLPKVHPRYDLDGDASMAKAITGVVCYACRIASTLLLYQELMRKGIRWLIELIKDDYNETVHKKTEVVITLDFCIRNIEKTVKVYEKLMKINLEAAELGEISDIHTKLLRLSSSQGTIETSLQDIDSRLSPGGSLADAWAHQEGTHPKDRNVEKLQVLLNCMTEIYYQFKKDKAERRLAYNEEQIHKFDKQKLYYHATKAMTHFTDECVKKYEAFLNKSEEWIRKMLHLRKQLLSLTNQCFDIEEEVSKYQEYTNELQETLPQKMFTASSGIKHTMTPIYPSSNTLVEMTLGMKKLKEEMEGVVKELAENNHILERFGSLTMDGGLRNVDCL
On to B1, for which the binding entry is given as “binds”.
